# Experimental data: PubChem BioAssay AID1224830 (NIAID, 2016)
# Test: 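Host factors that control LPS-induced TNF expression in human macrophages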 (primary screen)
# Cell system: human THP-1 monocytic leukaemia cells, TNF dual-luciferase reporter clone, PMA-differentiated to macrophage-like cells
# Reagents: siRNA pool against human genes, 50 nM
# Timing: LPS for 4 h, given about 3 days after siRNA transfection
# Challenge: bacterial LPS (TLR4 ligand), 10 ng/ml
# Read-out: 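Ratio of firefly to renilla light, scaled to the plate median and expressed as a robust z-score per replicate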
# Reading the numbers: TNF reporter robust z-score: higher = stronger TNF reporter response to LPS
# Active means: 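Each well counts as active if its z-score is over 2.8 or under -1.5; controls are left without a call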
# In all, the deposit lists about 18,000 reagents; below is a part drawn at random. In the full data, about 2,900 (16%) are marked active. 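Calls are made per well; low scores hint the gene aids the LPS response, high scores that it dampens it.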 Repeated entries: four replicate wells of each siRNA pool. No sequences are given here.
Target gene,PubChem SID,TNF reporter robust z-score,Outcome
RAB14 (GeneID 51552),SID315456775,-1.45,inactive
RAB14 (GeneID 51552),SID315456775,-0.64,inactive
RAB14 (GeneID 51552),SID315456775,-0.87,inactive
RAB14 (GeneID 51552),SID315456775,-1.24,inactive
SYTL4 (GeneID 94121),SID315461120,-1.38,inactive
SYTL4 (GeneID 94121),SID315461120,-1.07,inactive
SYTL4 (GeneID 94121),SID315461120,-1.32,inactive
SYTL4 (GeneID 94121),SID315461120,0.19,inactive
IL11 (GeneID 3589),SID315449478,-0.03,inactive
IL11 (GeneID 3589),SID315449478,-0.14,inactive
IL11 (GeneID 3589),SID315449478,-0.69,inactive
IL11 (GeneID 3589),SID315449478,-0.35,inactive
PRSS55 (GeneID 203074),SID315463111,0.52,inactive
PRSS55 (GeneID 203074),SID315463111,1.08,inactive
PRSS55 (GeneID 203074),SID315463111,0.64,inactive
PRSS55 (GeneID 203074),SID315463111,0.14,inactive
IFT81 (GeneID 28981),SID315456094,-0.59,inactive
IFT81 (GeneID 28981),SID315456094,-1.09,inactive
IFT81 (GeneID 28981),SID315456094,-0.06,inactive
PAK2 (GeneID 5062),SID315450417,-0.13,inactive
PAK2 (GeneID 5062),SID315450417,0.02,inactive
PAK2 (GeneID 5062),SID315450417,0.19,inactive
PAK2 (GeneID 5062),SID315450417,0.42,inactive
GRHL1 (GeneID 29841),SID315456183,0.66,inactive
GRHL1 (GeneID 29841),SID315456183,0.11,inactive
GRHL1 (GeneID 29841),SID315456183,-0.26,inactive
GRHL1 (GeneID 29841),SID315456183,0.02,inactive
P2RY12 (GeneID 64805),SID315459009,0.76,inactive
P2RY12 (GeneID 64805),SID315459009,0.11,inactive
P2RY12 (GeneID 64805),SID315459009,0.39,inactive
P2RY12 (GeneID 64805),SID315459009,1.03,inactive
APOC2 (GeneID 344),SID315447358,-1.47,inactive
APOC2 (GeneID 344),SID315447358,-1.35,inactive
APOC2 (GeneID 344),SID315447358,-1.87,active
APOC2 (GeneID 344),SID315447358,-1.29,inactive
SIRPG (GeneID 55423),SID315457639,0.36,inactive
SIRPG (GeneID 55423),SID315457639,1.59,inactive
SIRPG (GeneID 55423),SID315457639,1.11,inactive
SIRPG (GeneID 55423),SID315457639,0.76,inactive
TTLL2 (GeneID 83887),SID315460116,-1.29,inactive
TTLL2 (GeneID 83887),SID315460116,-1.23,inactive
TTLL2 (GeneID 83887),SID315460116,-0.72,inactive
TTLL2 (GeneID 83887),SID315460116,-0.65,inactive
TMPRSS2 (GeneID 7113),SID315451913,0.17,inactive
TMPRSS2 (GeneID 7113),SID315451913,1.37,inactive
TMPRSS2 (GeneID 7113),SID315451913,0.51,inactive
TMPRSS2 (GeneID 7113),SID315451913,1.28,inactive
GSK3B (GeneID 2932),SID315449071,-0.84,inactive
GSK3B (GeneID 2932),SID315449071,-0.23,inactive
GSK3B (GeneID 2932),SID315449071,-0.94,inactive
GSK3B (GeneID 2932),SID315449071,-0.08,inactive
KLHDC8A (GeneID 55220),SID315457509,-1.17,inactive
KLHDC8A (GeneID 55220),SID315457509,-1.23,inactive
KLHDC8A (GeneID 55220),SID315457509,-1.12,inactive
KLHDC8A (GeneID 55220),SID315457509,-1.2,inactive
GRAMD1A (GeneID 57655),SID315458528,0.86,inactive
GRAMD1A (GeneID 57655),SID315458528,0.49,inactive
GRAMD1A (GeneID 57655),SID315458528,-0.91,inactive
GRAMD1A (GeneID 57655),SID315458528,-0.58,inactive
GRAMD1A (GeneID 57655),SID315458528,1.4,inactive
GRAMD1A (GeneID 57655),SID315458528,1.37,inactive
GRAMD1A (GeneID 57655),SID315458528,0.8,inactive
GRAMD1A (GeneID 57655),SID315458528,2.29,inactive
WSCD2 (GeneID 9671),SID315453469,0.34,inactive
WSCD2 (GeneID 9671),SID315453469,0.33,inactive
WSCD2 (GeneID 9671),SID315453469,0.99,inactive
WSCD2 (GeneID 9671),SID315453469,0.19,inactive
OR4F6 (GeneID 390648),SID315464654,4.49,active
OR4F6 (GeneID 390648),SID315464654,3.31,active
OR4F6 (GeneID 390648),SID315464654,0.75,inactive
OR4F6 (GeneID 390648),SID315464654,1.25,inactive
MRPL35 (GeneID 51318),SID315456643,0.96,inactive
MRPL35 (GeneID 51318),SID315456643,1.33,inactive
MRPL35 (GeneID 51318),SID315456643,0.97,inactive
MRPL35 (GeneID 51318),SID315456643,1.15,inactive
CHRNA4 (GeneID 1137),SID315447927,-1.38,inactive
CHRNA4 (GeneID 1137),SID315447927,-1.14,inactive
CHRNA4 (GeneID 1137),SID315447927,-1.57,active
CHRNA4 (GeneID 1137),SID315447927,-0.26,inactive
GLT8D1 (GeneID 55830),SID315457891,-0.72,inactive
GLT8D1 (GeneID 55830),SID315457891,0.59,inactive
GLT8D1 (GeneID 55830),SID315457891,-0.12,inactive
GLT8D1 (GeneID 55830),SID315457891,0.44,inactive
ACP5 (GeneID 54),SID315447157,-0.43,inactive
ACP5 (GeneID 54),SID315447157,-0.03,inactive
ACP5 (GeneID 54),SID315447157,-0.07,inactive
ACP5 (GeneID 54),SID315447157,-0.55,inactive
PRR30 (GeneID 339779),SID315464050,4.03,active
PRR30 (GeneID 339779),SID315464050,1.13,inactive
PRR30 (GeneID 339779),SID315464050,0.68,inactive
PRR30 (GeneID 339779),SID315464050,0.82,inactive
SENP1 (GeneID 29843),SID315456185,-0.09,inactive
SENP1 (GeneID 29843),SID315456185,0.19,inactive
SENP1 (GeneID 29843),SID315456185,0.26,inactive
SENP1 (GeneID 29843),SID315456185,0.32,inactive
CCR9 (GeneID 10803),SID315454374,-0.77,inactive
CCR9 (GeneID 10803),SID315454374,0.98,inactive
CCR9 (GeneID 10803),SID315454374,-1.2,inactive
CCR9 (GeneID 10803),SID315454374,0.45,inactive
COX7A1 (GeneID 1346),SID315448051,-0.48,inactive
COX7A1 (GeneID 1346),SID315448051,-0.29,inactive
COX7A1 (GeneID 1346),SID315448051,-1.06,inactive
COX7A1 (GeneID 1346),SID315448051,-0.2,inactive
TNFRSF17 (GeneID 608),SID315447532,-0.82,inactive
TNFRSF17 (GeneID 608),SID315447532,-1.08,inactive
TNFRSF17 (GeneID 608),SID315447532,-0.55,inactive
TNFRSF17 (GeneID 608),SID315447532,-1.55,active
KRT33B (GeneID 3884),SID315449706,2.29,inactive
KRT33B (GeneID 3884),SID315449706,0.5,inactive
KRT33B (GeneID 3884),SID315449706,1.33,inactive
KRT33B (GeneID 3884),SID315449706,2.75,inactive

15 entries from above, ordered by “TNF reporter robust z-score”, descending:
Target gene,PubChem SID,TNF reporter robust z-score,Outcome
CCR9 (GeneID 10803),SID315454374,0.98,inactive
PRR30 (GeneID 339779),SID315464050,0.82,inactive
CCR9 (GeneID 10803),SID315454374,0.45,inactive
SENP1 (GeneID 29843),SID315456185,0.32,inactive
SENP1 (GeneID 29843),SID315456185,0.26,inactive
SENP1 (GeneID 29843),SID315456185,0.19,inactive
SENP1 (GeneID 29843),SID315456185,-0.09,inactive
COX7A1 (GeneID 1346),SID315448051,-0.2,inactive
COX7A1 (GeneID 1346),SID315448051,-0.29,inactive
COX7A1 (GeneID 1346),SID315448051,-0.48,inactive
CCR9 (GeneID 10803),SID315454374,-0.77,inactive
TNFRSF17 (GeneID 608),SID315447532,-0.82,inactive
COX7A1 (GeneID 1346),SID315448051,-1.06,inactive
TNFRSF17 (GeneID 608),SID315447532,-1.08,inactive
CCR9 (GeneID 10803),SID315454374,-1.2,inactive
